Source: the supplement of paper PMC10849652
This is one part of the list.

The chains behind the UniProt entries cited, without tags or fusion partners. Where a name states a change or a piece, a line headed by the entry shows the natural chain unless it says otherwise.
UniProt Q7L273: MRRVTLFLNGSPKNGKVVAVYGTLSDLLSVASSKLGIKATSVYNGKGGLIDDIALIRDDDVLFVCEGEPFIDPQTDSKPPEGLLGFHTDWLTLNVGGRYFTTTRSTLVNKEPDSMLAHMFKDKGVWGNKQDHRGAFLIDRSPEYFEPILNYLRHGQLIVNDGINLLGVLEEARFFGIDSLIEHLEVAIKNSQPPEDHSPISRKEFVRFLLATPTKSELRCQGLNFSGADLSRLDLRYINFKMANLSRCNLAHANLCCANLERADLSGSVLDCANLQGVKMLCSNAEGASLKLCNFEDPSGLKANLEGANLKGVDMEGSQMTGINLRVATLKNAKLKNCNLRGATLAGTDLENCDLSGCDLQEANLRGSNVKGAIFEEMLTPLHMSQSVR
UniProt Q9BW62: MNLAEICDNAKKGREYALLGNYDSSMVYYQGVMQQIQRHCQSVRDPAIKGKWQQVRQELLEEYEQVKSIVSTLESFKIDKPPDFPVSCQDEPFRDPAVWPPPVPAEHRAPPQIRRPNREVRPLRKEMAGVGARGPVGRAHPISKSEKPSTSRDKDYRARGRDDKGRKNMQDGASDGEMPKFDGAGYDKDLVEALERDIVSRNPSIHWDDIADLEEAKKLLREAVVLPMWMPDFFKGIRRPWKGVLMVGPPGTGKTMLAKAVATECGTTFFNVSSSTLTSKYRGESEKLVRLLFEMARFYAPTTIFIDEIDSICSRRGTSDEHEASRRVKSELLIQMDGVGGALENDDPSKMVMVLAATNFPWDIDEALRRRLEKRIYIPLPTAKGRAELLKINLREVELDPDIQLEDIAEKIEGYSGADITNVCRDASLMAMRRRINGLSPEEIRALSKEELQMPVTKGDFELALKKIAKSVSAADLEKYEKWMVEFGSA
UniProt P57682: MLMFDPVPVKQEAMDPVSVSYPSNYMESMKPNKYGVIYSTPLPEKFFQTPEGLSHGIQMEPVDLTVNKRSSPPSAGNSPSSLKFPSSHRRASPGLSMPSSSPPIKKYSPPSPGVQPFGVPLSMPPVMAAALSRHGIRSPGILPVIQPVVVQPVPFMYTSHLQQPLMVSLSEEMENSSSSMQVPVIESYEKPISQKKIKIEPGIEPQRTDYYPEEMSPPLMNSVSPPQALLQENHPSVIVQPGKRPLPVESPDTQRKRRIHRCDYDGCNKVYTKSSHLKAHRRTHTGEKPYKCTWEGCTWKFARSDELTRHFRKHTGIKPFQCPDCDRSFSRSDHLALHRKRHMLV
UniProt Q14974, whole entry, looked up: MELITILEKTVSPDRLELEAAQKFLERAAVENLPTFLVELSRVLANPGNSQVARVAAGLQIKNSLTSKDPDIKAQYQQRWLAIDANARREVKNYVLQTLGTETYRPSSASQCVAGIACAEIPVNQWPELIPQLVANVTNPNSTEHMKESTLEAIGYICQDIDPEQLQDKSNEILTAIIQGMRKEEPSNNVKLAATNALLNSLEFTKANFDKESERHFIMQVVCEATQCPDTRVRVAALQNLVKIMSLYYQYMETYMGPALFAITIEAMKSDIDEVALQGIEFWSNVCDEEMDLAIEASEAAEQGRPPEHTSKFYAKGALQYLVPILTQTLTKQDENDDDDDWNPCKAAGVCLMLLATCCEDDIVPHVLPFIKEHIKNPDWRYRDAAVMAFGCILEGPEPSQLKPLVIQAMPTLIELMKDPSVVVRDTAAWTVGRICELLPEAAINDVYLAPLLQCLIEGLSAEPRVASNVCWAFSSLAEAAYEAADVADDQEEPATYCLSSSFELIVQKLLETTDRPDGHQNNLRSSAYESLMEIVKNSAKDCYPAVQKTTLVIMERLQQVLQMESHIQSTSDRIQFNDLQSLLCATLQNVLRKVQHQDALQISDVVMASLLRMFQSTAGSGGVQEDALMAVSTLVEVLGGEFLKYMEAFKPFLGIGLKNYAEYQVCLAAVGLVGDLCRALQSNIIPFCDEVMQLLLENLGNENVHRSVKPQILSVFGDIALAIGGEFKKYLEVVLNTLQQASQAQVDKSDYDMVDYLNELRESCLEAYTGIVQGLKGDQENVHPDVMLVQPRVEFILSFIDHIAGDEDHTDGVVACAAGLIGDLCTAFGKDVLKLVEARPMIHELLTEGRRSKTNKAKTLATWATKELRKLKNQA
UniProt Q9Y664: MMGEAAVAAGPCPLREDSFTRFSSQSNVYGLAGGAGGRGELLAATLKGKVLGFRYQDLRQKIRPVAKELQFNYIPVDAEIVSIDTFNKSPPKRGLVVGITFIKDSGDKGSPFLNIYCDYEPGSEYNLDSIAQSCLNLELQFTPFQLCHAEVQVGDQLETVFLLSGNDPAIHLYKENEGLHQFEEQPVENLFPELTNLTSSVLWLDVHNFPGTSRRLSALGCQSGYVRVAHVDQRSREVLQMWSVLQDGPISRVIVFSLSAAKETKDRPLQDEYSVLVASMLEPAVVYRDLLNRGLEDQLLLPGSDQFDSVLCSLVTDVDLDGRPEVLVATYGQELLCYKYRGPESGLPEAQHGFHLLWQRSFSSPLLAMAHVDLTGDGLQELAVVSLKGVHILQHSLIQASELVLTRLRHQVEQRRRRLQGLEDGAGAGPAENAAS
UniProt Q8NFY9: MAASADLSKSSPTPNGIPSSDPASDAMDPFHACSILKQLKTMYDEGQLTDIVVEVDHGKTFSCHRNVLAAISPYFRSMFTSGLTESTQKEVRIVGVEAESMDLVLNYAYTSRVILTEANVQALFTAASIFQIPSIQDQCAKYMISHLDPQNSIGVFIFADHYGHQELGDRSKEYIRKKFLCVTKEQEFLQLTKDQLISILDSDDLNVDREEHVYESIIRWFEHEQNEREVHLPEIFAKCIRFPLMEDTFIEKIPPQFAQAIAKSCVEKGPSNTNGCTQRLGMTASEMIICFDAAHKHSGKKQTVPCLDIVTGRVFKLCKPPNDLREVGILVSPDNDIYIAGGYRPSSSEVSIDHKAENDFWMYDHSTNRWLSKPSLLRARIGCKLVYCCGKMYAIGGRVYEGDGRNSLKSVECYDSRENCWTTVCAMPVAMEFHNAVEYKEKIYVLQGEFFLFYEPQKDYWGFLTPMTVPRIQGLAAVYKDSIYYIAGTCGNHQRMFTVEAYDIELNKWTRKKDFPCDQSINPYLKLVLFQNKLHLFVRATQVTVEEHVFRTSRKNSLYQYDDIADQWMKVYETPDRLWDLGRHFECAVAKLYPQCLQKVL
UniProt O15554, whole entry, looked up: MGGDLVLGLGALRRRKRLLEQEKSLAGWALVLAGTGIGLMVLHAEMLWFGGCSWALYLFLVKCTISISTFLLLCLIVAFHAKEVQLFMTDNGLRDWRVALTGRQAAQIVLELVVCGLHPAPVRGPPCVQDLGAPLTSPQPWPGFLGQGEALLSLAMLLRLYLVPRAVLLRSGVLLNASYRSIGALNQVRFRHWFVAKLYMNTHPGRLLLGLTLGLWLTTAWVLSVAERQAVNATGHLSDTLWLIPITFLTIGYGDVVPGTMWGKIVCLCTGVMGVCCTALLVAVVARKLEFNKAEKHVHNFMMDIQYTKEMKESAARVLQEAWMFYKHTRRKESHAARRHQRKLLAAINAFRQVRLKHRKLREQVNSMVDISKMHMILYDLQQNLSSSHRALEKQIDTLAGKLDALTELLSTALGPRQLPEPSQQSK
UniProt P52732: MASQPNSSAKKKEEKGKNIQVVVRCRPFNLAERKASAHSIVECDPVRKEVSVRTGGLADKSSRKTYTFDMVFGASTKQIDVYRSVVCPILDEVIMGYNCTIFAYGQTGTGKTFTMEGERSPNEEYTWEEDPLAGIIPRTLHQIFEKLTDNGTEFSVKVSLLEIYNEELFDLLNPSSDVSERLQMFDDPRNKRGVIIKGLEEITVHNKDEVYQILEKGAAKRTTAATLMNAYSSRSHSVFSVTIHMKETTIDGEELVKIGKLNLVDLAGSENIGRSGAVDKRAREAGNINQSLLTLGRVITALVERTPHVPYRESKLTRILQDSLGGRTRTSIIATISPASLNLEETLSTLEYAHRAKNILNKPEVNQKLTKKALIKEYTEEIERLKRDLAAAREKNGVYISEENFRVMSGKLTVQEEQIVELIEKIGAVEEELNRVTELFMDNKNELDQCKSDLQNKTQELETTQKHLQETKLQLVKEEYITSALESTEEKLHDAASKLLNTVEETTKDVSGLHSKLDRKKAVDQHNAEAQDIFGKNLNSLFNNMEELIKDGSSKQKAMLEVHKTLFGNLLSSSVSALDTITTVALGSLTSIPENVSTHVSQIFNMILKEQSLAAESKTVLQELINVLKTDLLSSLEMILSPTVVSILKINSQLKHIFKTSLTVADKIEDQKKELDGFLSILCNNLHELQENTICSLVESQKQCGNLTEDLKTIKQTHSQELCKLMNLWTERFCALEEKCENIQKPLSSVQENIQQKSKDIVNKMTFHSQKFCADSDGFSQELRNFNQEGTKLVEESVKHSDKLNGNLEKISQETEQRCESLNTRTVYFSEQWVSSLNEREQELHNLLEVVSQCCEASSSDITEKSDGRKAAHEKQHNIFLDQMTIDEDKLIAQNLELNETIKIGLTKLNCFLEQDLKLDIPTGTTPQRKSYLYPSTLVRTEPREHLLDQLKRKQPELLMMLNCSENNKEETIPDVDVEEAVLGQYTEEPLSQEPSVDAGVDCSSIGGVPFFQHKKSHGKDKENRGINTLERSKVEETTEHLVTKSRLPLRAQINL
UniProt Q96A73: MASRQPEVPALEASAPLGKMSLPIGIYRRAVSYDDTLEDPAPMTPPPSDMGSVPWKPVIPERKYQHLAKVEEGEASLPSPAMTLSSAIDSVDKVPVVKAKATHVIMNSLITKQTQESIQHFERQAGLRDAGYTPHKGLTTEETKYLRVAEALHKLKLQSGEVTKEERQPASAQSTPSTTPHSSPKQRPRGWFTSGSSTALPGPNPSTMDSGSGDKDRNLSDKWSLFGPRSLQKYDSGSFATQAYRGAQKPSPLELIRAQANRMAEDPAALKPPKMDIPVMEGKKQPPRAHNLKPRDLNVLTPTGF
UniProt Q07866: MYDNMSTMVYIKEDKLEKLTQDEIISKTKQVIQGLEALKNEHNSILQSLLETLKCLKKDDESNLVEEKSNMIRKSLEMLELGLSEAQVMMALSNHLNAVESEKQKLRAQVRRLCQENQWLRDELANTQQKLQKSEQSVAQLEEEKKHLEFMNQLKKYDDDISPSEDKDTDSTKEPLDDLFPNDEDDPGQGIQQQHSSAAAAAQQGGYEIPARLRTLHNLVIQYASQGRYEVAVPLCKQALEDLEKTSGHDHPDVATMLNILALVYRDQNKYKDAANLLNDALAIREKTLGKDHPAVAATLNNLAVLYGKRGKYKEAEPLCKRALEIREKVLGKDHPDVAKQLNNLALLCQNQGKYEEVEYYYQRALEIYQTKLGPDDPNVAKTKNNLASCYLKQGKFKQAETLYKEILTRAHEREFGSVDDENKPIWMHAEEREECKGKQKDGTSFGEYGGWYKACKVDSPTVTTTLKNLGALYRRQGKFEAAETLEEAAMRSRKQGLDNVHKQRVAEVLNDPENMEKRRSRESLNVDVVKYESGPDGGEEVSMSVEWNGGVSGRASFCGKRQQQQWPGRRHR
UniProt Q92945: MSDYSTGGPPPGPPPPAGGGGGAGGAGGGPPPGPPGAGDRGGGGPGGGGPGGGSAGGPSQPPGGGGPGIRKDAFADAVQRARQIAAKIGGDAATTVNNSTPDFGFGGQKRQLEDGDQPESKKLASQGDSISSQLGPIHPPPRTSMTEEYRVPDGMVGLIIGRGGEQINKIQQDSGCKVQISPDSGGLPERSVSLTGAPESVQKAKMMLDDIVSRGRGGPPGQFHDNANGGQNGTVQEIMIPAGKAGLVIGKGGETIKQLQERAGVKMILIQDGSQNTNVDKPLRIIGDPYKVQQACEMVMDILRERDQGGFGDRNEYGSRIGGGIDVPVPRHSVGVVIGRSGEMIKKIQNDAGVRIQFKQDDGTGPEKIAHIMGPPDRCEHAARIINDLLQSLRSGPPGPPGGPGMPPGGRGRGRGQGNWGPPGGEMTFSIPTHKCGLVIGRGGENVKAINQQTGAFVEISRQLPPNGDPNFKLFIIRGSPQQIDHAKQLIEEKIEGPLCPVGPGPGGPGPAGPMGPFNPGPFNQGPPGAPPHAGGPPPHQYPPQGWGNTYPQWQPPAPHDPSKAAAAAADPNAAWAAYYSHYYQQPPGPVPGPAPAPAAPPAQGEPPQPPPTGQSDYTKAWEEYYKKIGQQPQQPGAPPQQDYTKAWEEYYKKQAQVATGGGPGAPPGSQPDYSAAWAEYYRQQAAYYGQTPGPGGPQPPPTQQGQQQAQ
UniProt P17535: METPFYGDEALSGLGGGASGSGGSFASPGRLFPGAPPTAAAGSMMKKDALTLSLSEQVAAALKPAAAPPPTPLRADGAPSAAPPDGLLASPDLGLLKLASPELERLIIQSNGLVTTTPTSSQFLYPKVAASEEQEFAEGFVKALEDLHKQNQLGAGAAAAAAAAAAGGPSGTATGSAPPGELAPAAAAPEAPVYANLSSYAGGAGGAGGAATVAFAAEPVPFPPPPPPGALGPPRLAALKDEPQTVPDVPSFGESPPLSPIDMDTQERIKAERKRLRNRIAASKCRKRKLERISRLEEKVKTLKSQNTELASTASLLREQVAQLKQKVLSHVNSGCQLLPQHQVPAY

Legend:
Test in all cases: log2 fold change, soluble protein after heating vs DMSO (PISA); higher = thermal stabilisation; K562 cells, 10 uM, 30 min; active = over 0.2 and 3.5 SD of the protein, either way, in both replicates (recomputed)
[1] = compound: C1=CC=C(C=C1)[C@H](COC2=CC3=C(C=C2)NC(=O)N3)NC(=O)C4=CC=CN(C4=O)CC5=CC(=C(C=C5)F)F
How it was run: (§1)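 Soluble protein was defined as the supernatant after 21,000xg for 90 min. It came from K562 cells at 2×10^6 cells/mL given 10 μM compound for 30 min, heated in aliquots for 3 min across 48°C-58°C, pooled, and extracted in PBS with 0.5% NP-40 at 4°C, and was quantified by TMTpro 16plex LC-MS/MS with equalised channel sums. Thermal stability against control samples, from duplicates, is reported as log2 fold change.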

[2] = compound: CC1=C(SC2=C1C(=N[C@H](C3=NN=C(N32)C)CC(=O)N)C4=CC=C(C=C4)Cl)C
How it was run: as §1

[3] = compound: CC1=C2C(=CC=C1)N=C(N(C2=O)C3=CC=CC=C3C)CN4C=NC5=C(N=CN=C54)N
How it was run: as §1

[4] = compound: Cc1sc2c(c1C)C(c1ccc(Cl)cc1)=N[C@@H](CC(=O)OC(C)(C)C)c1nnc(C)n1-2
How it was run: as §1

[5] = compound: c1ccc([C@@H]2C[C@H]2NC2CCNCC2)cc1
How it was run: as §1

Measured: log2 fold change

KIF26A (UniProt Q9ULI4)
inactive: [1] 0.077

JMJD4 (UniProt Q9H9V9)
inactive: [1] 0.26

KPNA4 (UniProt O00629)
inactive: [1] -0.017 | [2] 0.004 | [3] 0.035 | [4] 0.004 | [5] 0.009

KLHL11 (UniProt Q9NVR0)
inactive: [1] -0.115 | [2] 0.101 | [3] 0.038 | [4] -0.101 | [5] -0.068

KMT2C isoform 3 (UniProt Q8NEZ4)
inactive: [1] 0.032 | [2] 0.04 | [3] 0.017 | [4] -0.076 | [5] -0.001

JAG2 (UniProt Q9Y219)
inactive: [1] 0.031 | [2] 0.056 | [3] 0.013 | [4] 0.064 | [5] -0.081

KCTD7 (UniProt Q96MP8)
inactive: [1] 0.057

KDM1A isoform 2 (UniProt O60341)
inactive: [1] -0.05 | [2] 0 | [3] 0.087 | [4] -0.019
active: [5] 1.73

KIFAP3 (UniProt Q92845)
inactive: [1] 0.129

JCHAIN (UniProt P01591)
inactive: [1] -0.009

JPT1 (UniProt Q9UK76)
inactive: [1] -0.009 | [2] 0.055 | [3] 0.008 | [4] -0.021 | [5] -0.004

KHDC4 (UniProt Q7Z7F0)
inactive: [1] -0.063 | [2] 0.129 | [3] 0.007 | [4] -0.061 | [5] -0.064

KIAA1522 isoform 2 (UniProt Q9P206)
inactive: [1] 0.073 | [2] -0.117 | [3] -0.147 | [4] 0.018 | [5] 0.118

KIF21A isoform 4 (UniProt Q7Z4S6)
inactive: [1] -0.003 | [2] -0.024 | [3] 0.061 | [4] -0.077 | [5] 0.014

KIDINS220 (UniProt Q9ULH0)
inactive: [1] -0.001 | [2] 0.024 | [3] 0.041 | [4] 0.001 | [5] 0

KCTD9 (UniProt Q7L273)
inactive: [1] -0.011 | [2] 0.028 | [3] -0.027 | [4] -0.071 | [5] -0.03

KATNAL1 (UniProt Q9BW62)
inactive: [1] 0.113 | [2] -0.214 | [3] 0.035 | [4] -0.084 | [5] -0.034

KRAS isoform 2 (UniProt P01116)
inactive: [1] -0.002 | [2] -0.065 | [3] 0.096 | [4] 0.005 | [5] 0.053

KDM8 isoform 3 (UniProt Q8N371)
inactive: [1] -0.006 | [2] 0.134 | [3] 0.074 | [4] -0.098 | [5] -0.004

KIF5A (UniProt Q12840)
inactive: [1] -0.024 | [2] 0.001 | [3] -0.007 | [4] 0.048 | [5] -0.002

KLF3 (UniProt P57682)
inactive: [1] 0.08 | [2] 0.211 | [3] -0.065 | [4] 0.086 | [5] -0.013

KPNB1 (UniProt Q14974)
inactive: [1] -0.035 | [2] -0.018 | [3] -0.024 | [4] 0.001 | [5] -0.021

KPTN (UniProt Q9Y664)
inactive: [1] -0.021 | [2] 0.135 | [3] 0.035 | [4] -0.135 | [5] -0.111

KATNB1 (UniProt Q9BVA0)
inactive: [1] -0.039 | [2] 0.018 | [3] 0.025 | [4] 0.06 | [5] -0.026

JUNB (UniProt P17275)
inactive: [1] -0.094 | [2] 0.094 | [3] 0.005 | [4] 0.094 | [5] 0.083

KDM2B (UniProt Q8NHM5)
inactive: [1] -0.174

KBTBD8 (UniProt Q8NFY9)
inactive: [1] -0.009 | [2] 0.078 | [3] 0.091 | [4] -0.089 | [5] -0.028

KCNN4 (UniProt O15554)
inactive: [1] 0.237 | [2] 0.16 | [3] -0.102 | [4] 0.061 | [5] -0.216

KIF23 (UniProt Q02241)
inactive: [1] -0.027 | [2] 0.107 | [3] 0.048 | [4] -0.093 | [5] -0.035

JMJD7 (UniProt P0C870)
inactive: [1] 0.133

KRT87P (UniProt A6NCN2)
inactive: [1] 0.037

KMT2D isoform 3 (UniProt O14686)
inactive: [1] 0.019 | [2] 0.041 | [3] 0.069 | [4] -0.013 | [5] 0.044

KPNA3 (UniProt O00505)
inactive: [1] 0 | [2] 0.01 | [3] 0.08 | [4] -0.032 | [5] 0.006

KIAA1143 (UniProt Q96AT1)
inactive: [1] 0.074 | [2] 0 | [3] 0.016 | [4] 0.004 | [5] 0.054

KARS1 (UniProt Q15046)
inactive: [1] 0.043 | [2] -0.128 | [3] -0.092 | [4] 0.125 | [5] 0.033

KNTC1 (UniProt P50748)
inactive: [1] -0.079 | [2] 0.011 | [3] 0.106 | [4] -0.011 | [5] -0.008

KCTD3 (UniProt Q9Y597)
inactive: [1] 0.031 | [2] -0.052 | [3] 0.019 | [4] 0.091 | [5] 0.064

KAT8 isoform 2 (UniProt Q9H7Z6)
inactive: [1] -0.018 | [2] -0.012 | [3] -0.055 | [4] -0.015 | [5] 0.001

KCT2 (UniProt Q8NC54)
inactive: [1] 0.046 | [2] 0.024 | [3] -0.01 | [4] -0.014 | [5] 0.028

KIF11 (UniProt P52732)
inactive: [1] -0.044 | [2] -0.011 | [3] 0.074 | [4] 0.092 | [5] -0.027

IVNS1ABP (UniProt Q9Y6Y0)
inactive: [1] -0.104 | [2] 0.096 | [3] 0.09 | [4] 0.123 | [5] -0.042

KIAA1191 (UniProt Q96A73)
inactive: [1] -0.024 | [2] 0.069 | [3] -0.002 | [4] -0.055 | [5] 0.043

KNSTRN (UniProt Q9Y448)
inactive: [1] 0.013 | [2] -0.061 | [3] -0.017 | [4] 0.049 | [5] 0.006

KLC4 isoform 3 (UniProt Q9NSK0)
inactive: [1] -0.052 | [2] -0.032 | [3] -0.03 | [4] 0.027 | [5] 0.018

KEL (UniProt P23276)
inactive: [1] -0.067 | [2] 0.003 | [3] 0.017 | [4] 0.019 | [5] 0.067

JAK3 (UniProt P52333)
inactive: [1] -0.011 | [2] 0.075 | [3] -0.027 | [4] 0.009 | [5] 0.032

KLC1 isoform 6 (UniProt Q07866)
inactive: [1] -0.027 | [2] 0.057 | [3] 0.036 | [4] 0.001 | [5] -0.024

KCTD2 (UniProt Q14681)
inactive: [1] 0.008 | [2] -0.01 | [3] 0.022 | [4] 0.195 | [5] 0.158

KHK isoform 2 (UniProt P50053)
inactive: [1] -0.061 | [2] 0.002 | [3] 0.045 | [4] -0.04 | [5] 0.01

JMJD1C (UniProt Q15652)
inactive: [1] 0.007 | [2] 0.07 | [3] 0.112 | [4] -0.053 | [5] -0.069

JMJD6 isoform 3 (UniProt Q6NYC1)
inactive: [1] -0.004 | [2] 0.046 | [3] 0.055 | [4] 0.006 | [5] 0.097

KIAA2013 isoform 2 (UniProt Q8IYS2)
inactive: [1] 0.025 | [2] -0.026 | [3] 0.065 | [4] -0.011 | [5] 0

KPNA1 (UniProt P52294)
inactive: [1] -0.03 | [2] -0.049 | [3] 0.079 | [4] -0.003 | [5] -0.001

KBTBD2 (UniProt Q8IY47)
inactive: [1] 0 | [2] 0.12 | [3] 0.049 | [4] -0.023 | [5] -0.006

KIAA1755 (UniProt Q5JYT7)
inactive: [1] 0.007 | [2] -0.017 | [3] -0.011 | [4] 0.034 | [5] 0.012

KHSRP (UniProt Q92945)
inactive: [1] 0.008 | [2] 0.026 | [3] 0.005 | [4] -0.002 | [5] 0

Random excerpt: 2 entries already listed
KPNA1 (UniProt P52294)
inactive: [1] -0.03 | [2] -0.049 | [3] 0.079 | [4] -0.003 | [5] -0.001

KIAA2013 isoform 2 (UniProt Q8IYS2)
inactive: [1] 0.025 | [2] -0.026 | [3] 0.065 | [4] -0.011 | [5] 0

Further records follow:

JUND (UniProt P17535)
inactive: [1] 0.039 | [2] -0.005 | [3] -0.023 | [4] -0.013 | [5] 0.039
